According to PubChem BioAssay AID504444 (National Center for Advancing Translational Sciences (NCATS), 2011):
Screen size: about 360,000 compounds; about 7,500 (2.1%) were called active. The shares of active, inactive and inconclusive entries below differ from those in the screen. Calls follow the shape of the dose curve; as a rule, active = well fitted inhibition curve with a large enough effect; inconclusive = small, poorly fitted or top-dose-only effect, or effect the other way; inactive = flat fitted curve, though single readings scatter. Potencies beside an inconclusive call are fits to weak or partial responses and may not hold up.

Test: Nrf2 qHTS screen for inhibitors; also: nearly all actives have a fitted effect of over 60% in size
Conditions: A549 ARE-Fluc reporter, luciferase luminescence, 18-24 h; series mostly up to 46 µM
Summary of the method: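 Reporter: ARE-Fluc in A549. Exposure: 18-24 h, 37 °C, 5% CO2, 5% FBS OPTI-MEM. Readouts: fluorescent cytotoxicity (CellTiter-Fluor), then luminescent Nrf2 signal after BugLite.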
Potency is read from the fitted curve at half-maximal effect.

Compound | Potency
O=C(NCC1CCCO1)c1ccc2ccccc2n1 (configuration not stated) | inconclusive: 14.6 µM [activator, partial curve, poor fit]
CC(=O)Nc1nn(C)c2nc(C)cc(C)c12 | inactive
COC(=O)CSc1nc2sc3c(c2c(=O)n1-c1ccccc1C)CC(C)(C)OC3 | inactive
Cc1ccc(OCC(=O)OC2=C(C(=O)c3ccccc3)N(C)S(=O)(=O)c3ccccc32)cc1 | inconclusive: 29.1 µM [falling, single point]
COc1cccc(N2CC(C(=O)N3CCC4(CC3)CC(=O)c3ccccc3O4)CC2=O)c1 (configuration not stated) | inconclusive: 11.6 µM [falling, partial curve]
CCCn1c(NCc2ccccn2)nc2ccccc21 | inconclusive: 29.1 µM [activator, single point]
CCOC(=O)CN1N=C(/C=C/c2ccc(C(C)C)cc2)CCC1=O | inconclusive: 18.4 µM [activator, partial curve, poor fit]
Cc1ccc(C)c(S(=O)(=O)N2CCN(C(=O)[C@@H](NC(=O)c3ccc(F)cc3)C(C)C)CC2)c1 | inconclusive: 8.2 µM [falling, partial curve]
CCOc1ccc(/C=N/NC(N)=S)cc1 | inconclusive: 29.1 µM [activator, single point]
CC(c1ccon1)N(C)C(=O)CCc1nnc(C2(c3ccc(Cl)cc3)CCC2)o1 (configuration not stated) | inconclusive: 13 µM [activator, partial curve]
O=C(CSc1ccccc1)NC1CCCCCCC1 | inconclusive: 23.1 µM [activator, single point]
O=C(CCC1CCCN(Cc2ccc(O)c(Cl)c2)C1)NCc1ccccc1F (configuration not stated) | inconclusive: 18.4 µM [activator, partial curve, poor fit]
CCOc1ccc2[nH]c(C(=O)N/N=C/c3cccc(OC)c3OC)cc2c1 | inconclusive: 29.1 µM [falling, single point]
CN(c1ccc(OCC(=O)Nc2nc(-c3ccccc3)cs2)cc1)S(=O)(=O)c1ccc(F)cc1 | inconclusive: 18.4 µM [falling, partial curve, poor fit]
COc1ccccc1Cn1c(/C=C/c2ccccc2)nc2ccccc21 | inconclusive: 32.6 µM [falling, single point]
CCOC(=O)C(c1ccccc1)C(Nc1ccc(F)cc1)c1ccccn1 (configuration not stated) | inconclusive: 23.1 µM [falling, single point]
COc1cc(CC2C(=O)Nc3ccccc32)cc(C)c1O (configuration not stated) | inactive
COc1ccc(/C=N/Nc2ccc(C(=O)O)cc2)c(OC)c1OC | inconclusive: 25.9 µM [activator, single point]
Cc1cc(Br)ccc1NC(=O)c1ccco1 | inconclusive: 29.1 µM [activator, single point]
Cc1nnc(NCc2n[nH]c(=O)c3ccccc23)c2ccccc12 | inconclusive: 1.46 µM [falling, full curve]
COc1ccc2c(c1)Cc1sc(NC(=O)c3cccc(C)c3)nc1-2 | active: 20.6 µM

As a short view, part of the list above.
Compound | Potency
Cc1ccc(C)c(S(=O)(=O)N2CCN(C(=O)[C@@H](NC(=O)c3ccc(F)cc3)C(C)C)CC2)c1 | inconclusive: 8.2 µM [falling, partial curve]
CCOc1ccc(/C=N/NC(N)=S)cc1 | inconclusive: 29.1 µM [activator, single point]
CC(c1ccon1)N(C)C(=O)CCc1nnc(C2(c3ccc(Cl)cc3)CCC2)o1 (configuration not stated) | inconclusive: 13 µM [activator, partial curve]
O=C(CSc1ccccc1)NC1CCCCCCC1 | inconclusive: 23.1 µM [activator, single point]
O=C(CCC1CCCN(Cc2ccc(O)c(Cl)c2)C1)NCc1ccccc1F (configuration not stated) | inconclusive: 18.4 µM [activator, partial curve, poor fit]
CCOc1ccc2[nH]c(C(=O)N/N=C/c3cccc(OC)c3OC)cc2c1 | inconclusive: 29.1 µM [falling, single point]
CN(c1ccc(OCC(=O)Nc2nc(-c3ccccc3)cs2)cc1)S(=O)(=O)c1ccc(F)cc1 | inconclusive: 18.4 µM [falling, partial curve, poor fit]
COc1ccccc1Cn1c(/C=C/c2ccccc2)nc2ccccc21 | inconclusive: 32.6 µM [falling, single point]
CCOC(=O)C(c1ccccc1)C(Nc1ccc(F)cc1)c1ccccn1 (configuration not stated) | inconclusive: 23.1 µM [falling, single point]
COc1cc(CC2C(=O)Nc3ccccc32)cc(C)c1O (configuration not stated) | inactive
COc1ccc(/C=N/Nc2ccc(C(=O)O)cc2)c(OC)c1OC | inconclusive: 25.9 µM [activator, single point]
Cc1cc(Br)ccc1NC(=O)c1ccco1 | inconclusive: 29.1 µM [activator, single point]
Cc1nnc(NCc2n[nH]c(=O)c3ccccc23)c2ccccc12 | inconclusive: 1.46 µM [falling, full curve]

Following part

Compound | Potency
O=[N+]([O-])c1cc2oc3c(c2c(C=NCc2ccccc2)c1O)CCCC3 | inconclusive: 29.1 µM [falling, single point]
COc1ccc(NC(=O)c2nc(C)c(C3(C)CC(c4cccnc4)=NO3)s2)cc1 (configuration not stated) | inconclusive: 25.9 µM [falling, partial curve]
c1ccc(CN=C2Nc3ccccc3CS2)nc1 | inconclusive: 9.2 µM [activator, partial curve]
O=C(c1cc2nc(-c3ccco3)cc(C(F)(F)F)n2n1)N1CCCc2ccccc21 | inconclusive: 29.1 µM [activator, single point]
O=C(Nc1nnc(-c2ccc(Br)cc2)o1)c1ccco1 | inconclusive: 29.1 µM [activator, partial curve, poor fit]
COc1nn(CC(=O)N2N=C(C)CC2(O)C(F)F)cc1[N+](=O)[O-] (configuration not stated) | inconclusive: 25.9 µM [activator, single point]
O=C(COc1ccc2c3c(c(=O)oc2c1)CCCC3)NCCCn1ccnc1 | inconclusive: 29.1 µM [falling, single point]
COc1ccc(CNC(=O)CN(c2ccc(C(C)C)cc2)S(=O)(=O)c2c(C)noc2C)cc1 | inconclusive: 18.4 µM [falling, single point]
CC(C)N=C1NN=C(c2ccc(Cl)c(Cl)c2)CS1 | inconclusive: 0.291 µM [activator, partial curve, poor fit]
CCN(Cc1nc2ccccc2c(=O)[nH]1)Cc1cc(=O)oc2cc(C)c(C)cc12 | inconclusive: 32.6 µM [activator, single point]
COc1ccccc1C(=O)Nc1ccnn1C1CCN(Cc2cn(C)c3ccccc23)CC1 | inconclusive: 14.6 µM [falling, partial curve]
COc1ccc(Nc2ccc([N+](=O)[O-])cn2)cc1 | inconclusive: 4.61 µM [activator, partial curve, poor fit]
O=C(O)CC(CNS(=O)(=O)c1ccccc1)c1ccccc1 (configuration not stated) | inconclusive: 29.1 µM [activator, single point]
Cc1noc(/C=C/c2ccco2)c1S(=O)(=O)N1CCC(C(=O)NCc2ccco2)CC1 | inconclusive: 0.0731 µM [falling, full curve, poor fit]
O=C(CSc1nc(O)cc(=O)[nH]1)N1c2ccccc2CCc2ccccc21 | inconclusive: 0.366 µM [activator, full curve, poor fit]
CC(NC(=O)c1cc(COc2cccc(C(F)(F)F)c2)on1)c1nccs1 (configuration not stated) | inconclusive: 5.8 µM [activator, partial curve]
CCN(CC)c1ccc(NC(=O)c2ccccc2)cc1S(=O)(=O)Nc1ccccc1OC | inactive
O=C(CCCc1ccccc1)Nc1ccccn1 | inconclusive: 8.2 µM [activator, partial curve]
Cc1ccc(-n2nnc(-c3nc(-c4cccs4)no3)c2N)c(C)c1 | inconclusive: 29.1 µM [activator, single point]
Cc1ccc2sc(N3CCN(CCNC(=O)c4ccco4)CC3)nc2c1C | inconclusive: 18.4 µM [falling, partial curve, poor fit]
CCCNC(=O)c1c(CSc2ccc(Cl)cc2)noc1C(=O)NCc1ccccc1 | inconclusive: 29.1 µM [falling, single point]

Compound | Potency
CCN(CC(=O)NCc1cccs1)C(=O)CCCOc1ccccc1 | inconclusive: 16.4 µM [activator, partial curve, poor fit]
CCOc1ccc(-c2nc(=S)[nH][nH]2)cc1 | inactive
CSc1nc(Cl)cc(Nc2ccc(O)cc2)n1 | inconclusive: 20.6 µM [activator, single point]
C/C=C/CSc1nc2c(c(=O)[nH]c(=O)n2C)n1Cc1ccc(C)cc1 | inconclusive: 8.2 µM [falling, partial curve, poor fit]
CCC(C)c1ccccc1N1CC(C(=O)Nc2ccc(S(=O)(=O)N3CCOCC3)cc2)CC1=O (configuration not stated) | inconclusive: 20.6 µM [falling, single point]
O=C(C=Cc1ccco1)c1ccc2ccccc2c1 | inconclusive: 16.4 µM [activator, single point]
O=C(Nc1ccc(F)cc1)c1ccc(-n2cncn2)c([N+](=O)[O-])c1 | active: 23.1 µM
CCCN(CC(=O)Nc1ccccc1C)C(=O)C1CCN(S(=O)(=O)c2ccc3c(c2)OCCO3)CC1 | inconclusive: 0.103 µM [falling, partial curve, poor fit]
O=C(CCN1CCN(CCO)CC1)Nc1ccc(OCc2ccccc2)cc1 | inconclusive: 25.9 µM [activator, partial curve, poor fit]
O=C(NC(Cc1ccccc1)C(=O)N1CCN(c2ccccc2O)CC1)c1ccccc1 (configuration not stated) | inconclusive: 4.61 µM [falling, single point]
CC(C)(C)NC(=O)CSc1nc2ccccc2c(=O)[nH]1 | inconclusive: 6.51 µM [activator, single point]
O=C(CNC(=O)c1cccc(F)c1)N/N=C/c1ccc(O)c([N+](=O)[O-])c1 | inconclusive: 3.66 µM [falling, partial curve, poor fit]
Cc1cc(C)nc(NS(=O)(=O)c2ccc(Br)cc2)n1 | inconclusive: 4.11 µM [activator, partial curve, poor fit]
Cc1ccc(N/N=C(\Cc2nc3ccccc3[nH]2)c2ccccc2)cc1 | inconclusive: 11.6 µM [activator, partial curve]
Cc1nc(SCC(=O)N2c3ccccc3NC(=O)CC2C)c2c(C)c(C)sc2n1 (configuration not stated) | inconclusive: 29.1 µM [falling, single point]
CN(CC(=O)Nc1cccc(Cl)c1)S(=O)(=O)c1ccc2c(c1)n(C)c(=O)c(=O)n2C | inconclusive: 23.1 µM [falling, single point]
Cc1c(Cl)cccc1NS(=O)(=O)c1cc2c(cc1Cl)CCC(=O)N2 | inconclusive: 29.1 µM [falling, single point]
Cc1cccc(-n2cnc3c(sc4nc(N5CCOCC5)c5c(c43)CCCC5)c2=O)c1 | inconclusive: 16.4 µM [falling, single point]
O=C(c1cccc(NS(=O)(=O)c2cccc([N+](=O)[O-])c2)c1)N1CCOCC1 | inconclusive: 20.6 µM [falling, partial curve, poor fit]
Cc1c(NC(=O)C(C)Oc2ccc(Br)cc2Cl)c(=O)n(-c2ccccc2)n1C (configuration not stated) | inconclusive: 3.26 µM [activator, partial curve, poor fit]
